From PubChem BioAssay record AID1053133 (Broad Institute, 2014).

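Vaccinia-infected cells with a two-color viral stage reporter; Venus fluorescence read on a plate reader; the cell line is not named here; timing not stated here.
The test concentration is not given here.
Percent change in Venus reporter signal; lower (more negative) values mean stronger inhibition of that viral stage.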

Values are in %.
The controls that fix the scale are not given here.
Common to all entries: measured here: Venus reporter, other viral stage.
Part of the compounds only, not a random draw; the main read-out is not listed here.

| # | SMILES | activity change (Venus) (%) |
|---|---|---|
| 1 | `C[C@@H]1CCCCO[C@H](CN(C)CC2CCCCC2)[C@@H](C)CN([C@@H](C)CO)C(=O)c2cc(NS(=O)(=O)c3cccs3)ccc2O1` | -57.9 |
| 2 | `OC[C@@H]1[C@H](c2ccc(-c3ccc(F)cc3)cc2)[C@H]2CN(CCC(F)(F)F)CCCCN12` | -78.42 |
| 3 | `CCCNC(=O)N1[C@H](C#N)[C@H](c2ccc(C#Cc3ccc(F)cc3)cc2)[C@@H]1CO` | -32.02 |
| 4 | `C[C@@H]1CN([C@H](C)CO)C(=O)c2cc(NC(=O)Nc3ccc4c(c3)OCO4)ccc2O[C@@H](C)CCCCO[C@@H]1CN(C)CC1CCCCC1` | -43.73 |
| 5 | `CCCNC(=O)N1CC2(CCN(Cc3cccc(OC)c3)CC2)c2c(n(C)c3cc(OC)ccc23)[C@@H]1CO` | -53.78 |
| 6 | `COc1ccccc1S(=O)(=O)N(C)C[C@H]1OCc2ccccc2-c2c(n(C)c3ccccc23)C(=O)N([C@H](C)CO)C[C@H]1C` | -24.81 |
| 7 | `Cc1ccccc1-c1ccc([C@H]2[C@@H](CO)N3C(=O)CN(C(=O)Nc4ccc(F)cc4)C[C@H]23)cc1` | -26.93 |
| 8 | `C[C@@H]1CN([C@@H](C)CO)C(=O)Cc2cc(NC(=O)Nc3ccc(C(F)(F)F)cc3)ccc2O[C@H]1CN(C)Cc1ccccc1` | -14.59 |
| 9 | `O=C(c1ccc(F)cc1)N1CCCCN2[C@@H](CO)[C@H](c3ccc(-c4ccc(F)cc4)cc3)[C@@H]2C1` | -36.47 |
| 10 | `COc1ccc2c3c([nH]c2c1)[C@H](CO)N(C(=O)CN(C)C)CC31CCN(Cc2ccccc2Cl)CC1` | -54.72 |
| 11 | `C[C@H](CO)N1C[C@H](C)[C@@H](CN(C)CC2CCCCC2)Oc2ccc(NC(=O)Cc3cn(C)c4ccccc34)cc2CC1=O` | -37.9 |
| 12 | `O=C(C[C@H]1CC[C@@H]2[C@H](COC[C@H](O)CN2Cc2cccc(C(F)(F)F)c2)O1)NCc1ccc(Cl)cc1` | -52.41 |
| 13 | `Cc1noc(C)c1NC(=O)Nc1ccc2c(c1)C(=O)N([C@H](C)CO)C[C@@H](C)[C@H](CN(C)Cc1ccc(C(F)(F)F)cc1)OCCCC[C@H](C)O2` | -49.52 |
| 14 | `C[C@@H]1CN([C@@H](C)CO)S(=O)(=O)c2ccc(C#CC3CCCC3)cc2O[C@@H]1CN(C)C(=O)Cc1ccncc1` | -42.13 |
| 15 | `C[C@H](CO)N1C[C@H](C)[C@@H](CN(C)Cc2ccc3c(c2)OCO3)OCCCC[C@H](C)Oc2ccc(NC(=O)Nc3ccc(F)cc3)cc2C1=O` | -42.99 |
| 16 | `CO[C@@H]1CN(C)C(=O)c2ccc(NC(=O)Nc3ccccc3Cl)cc2OC[C@@H](C)N(C)C[C@H]1C` | -29.73 |
| 17 | `C[C@@H]1CN([C@@H](C)CO)C(=O)c2cc(C#CC3CCCCC3)cnc2O[C@@H]1CN(C)S(=O)(=O)c1ccccc1` | -39.04 |
| 18 | `C[C@@H]1CN([C@@H](C)CO)S(=O)(=O)c2ccc(C#Cc3ccccc3)cc2O[C@@H]1CN(C)C(=O)Cc1ccccn1` | -32.71 |
| 19 | `C[C@@H]1CN([C@H](C)CO)C(=O)c2cc(-c3ccc(F)cc3)cnc2O[C@H]1CN(C)CC1CCCC1` | -28.23 |
| 20 | `C[C@@H]1CN([C@@H](C)CO)C(=O)c2cccc(NC(=O)c3nc4ccccc4s3)c2O[C@H]1CN(C)CC1CCCCC1` | -40.92 |
| 21 | `COCC(=O)N1CCCCN2[C@H](C1)[C@H](c1ccc(-c3ccc(C)cc3)cc1)[C@@H]2CO` | -54.48 |
| 22 | `C[C@H]1CN([C@@H](C)CO)C(=O)c2cccc(NS(=O)(=O)c3ccc(Cl)cc3)c2O[C@H]1CN(C)C(=O)Nc1ccc(C(F)(F)F)cc1` | -25.74 |
| 23 | `C[C@H]1CN([C@@H](C)CO)S(=O)(=O)c2ccc(-c3cncnc3)cc2O[C@H]1CN(C)Cc1ccc(Oc2ccccc2)cc1` | -42.72 |
| 24 | `C[C@@H]1CN([C@@H](C)CO)C(=O)c2cc(NS(=O)(=O)c3ccc(F)cc3)ccc2O[C@@H](C)CCCCO[C@@H]1CN(C)Cc1ccccc1` | -69.71 |
| 25 | `O=C(C[C@H]1CC[C@@H]2[C@H](COC[C@H](O)CN2C(=O)c2ccc(F)cc2)O1)Nc1ccc(-c2ccccc2)cc1` | -58.15 |
| 26 | `C[C@H]1CCCCO[C@@H](CN(C)S(=O)(=O)c2ccc(F)cc2)[C@@H](C)CN([C@@H](C)CO)C(=O)c2cc(NC(=O)CCC(F)(F)F)ccc2O1` | -33.75 |
| 27 | `C[C@H]1CN([C@@H](C)CO)C(=O)c2cccc(NC(=O)Nc3ccc(C(F)(F)F)cc3)c2O[C@@H]1CN(C)S(=O)(=O)c1ccc(F)cc1` | -28.77 |
| 28 | `C[C@@H]1CCCCO[C@@H](CN(C)S(=O)(=O)c2ccc(Cl)cc2)[C@H](C)CN([C@@H](C)CO)C(=O)c2cc(NC(=O)CCC(F)(F)F)ccc2O1` | -33.42 |
| 29 | `O=C(Nc1ccc(F)cc1)N1C[C@@H]2N[C@H](C1)C2c1ccc(-c2cccnc2)cc1` (some centres unmarked) | -62.18 |
| 30 | `O=C(C[C@H]1CC[C@H]2[C@@H](COC[C@@H](O)CN2Cc2ccc(Cl)cc2)O1)NCc1ccccc1Cl` | -27.59 |
| 31 | `C[C@H](CO)N1C[C@H](C)[C@@H](CN(C)Cc2ccc(Cl)c(Cl)c2)OCCCC[C@H](C)Oc2ccc(N(C)C)cc2C1=O` | -30.6 |
| 32 | `C[C@H]1CN([C@@H](C)CO)C(=O)Cc2cc(NS(C)(=O)=O)ccc2O[C@@H]1CN(C)Cc1ccc(-c2ccccc2)cc1` | -27.78 |
| 33 | `C[C@H]1CN([C@@H](C)CO)S(=O)(=O)c2ccc(-c3cccc(F)c3)cc2O[C@@H]1CN(C)C(=O)c1cccc(F)c1` | -54.99 |
| 34 | `Cc1ccc(S(=O)(=O)N(C)C[C@@H]2OCCCC[C@H](C)Oc3ccc(NS(=O)(=O)c4cccs4)cc3C(=O)N([C@@H](C)CO)C[C@@H]2C)cc1` | -31.62 |
| 35 | `C[C@H]1CN([C@@H](C)CO)S(=O)(=O)c2ccc(C3=CCCCC3)cc2O[C@@H]1CN(C)Cc1ccccn1` | -91.63 |
| 36 | `C[C@H]1CCCCO[C@H](CN(C)C(=O)C2CCCCC2)[C@@H](C)CN([C@@H](C)CO)C(=O)c2cc(NC(=O)NC3CCCCC3)ccc2O1` | -45.11 |
| 37 | `CC(C)NC(=O)Nc1ccc2c(c1)C(=O)N([C@@H](C)CO)C[C@@H](C)[C@@H](CN(C)Cc1ccc(C(F)(F)F)cc1)OCCCC[C@@H](C)O2` | -57.83 |
| 38 | `O=C(Nc1ccccc1F)N1CC(=O)N2[C@H](CO)[C@@H](c3ccc(C#Cc4ccc(F)cc4)cc3)[C@H]2C1` | -31.17 |
| 39 | `C[C@@H]1CN([C@@H](C)CO)C(=O)c2cc(C#Cc3ccccc3F)cnc2O[C@@H]1CN(C)C(=O)C1CCCCC1` | -30.72 |
| 40 | `C[C@@H]1CCCCO[C@H](CN(C)C(=O)C2CCCCC2)[C@H](C)CN([C@@H](C)CO)C(=O)c2cc(NS(=O)(=O)c3ccc(Cl)cc3)ccc2O1` | -56.58 |
| 41 | `Cc1ccc(S(=O)(=O)Nc2ccc3c(c2)C(=O)N([C@H](C)CO)C[C@@H](C)[C@H](CN(C)C(=O)Nc2ccc(F)cc2)OCCCC[C@H](C)O3)cc1` | -26.92 |
| 42 | `O=C(C[C@@H]1CC[C@@H]2[C@H](COC[C@@H](O)CN2Cc2ccc(Oc3ccccc3)cc2)O1)Nc1nccs1` | -46.82 |
| 43 | `C[C@H](CO)N1C[C@H](C)[C@H](CN(C)Cc2ccc(C(F)(F)F)cc2)Oc2ccc(NS(=O)(=O)c3ccc(Cl)cc3)cc2CC1=O` | -25.92 |
| 44 | `C[C@H](CO)N1C[C@H](C)[C@H](CN(C)C(=O)c2ccccn2)Oc2cc(C#Cc3ccc(F)cc3)ccc2S1(=O)=O` | -31.32 |
| 45 | `N#C[C@H]1[C@H](c2ccc(-c3cccc(F)c3)cc2)[C@@H](CO)N1C(=O)NC1CCCCC1` | -36.53 |
| 46 | `O=C(C1CCC1)N1CCCCN2[C@H](C1)[C@@H](c1ccc(C#CC3CCCC3)cc1)[C@@H]2CO` | -55.93 |
| 47 | `Cc1ccccc1-c1ccc2c(c1)O[C@@H](CN(C)C(=O)Nc1ccccc1)[C@@H](C)CN([C@@H](C)CO)S2(=O)=O` | -28.37 |
| 48 | `C[C@H]1CN([C@@H](C)CO)C(=O)c2cccc(NC(=O)Nc3ccc(C(F)(F)F)cc3)c2O[C@@H]1CN(C)C(=O)Nc1ccc(F)cc1` | -28.01 |
| 49 | `Cc1noc(C)c1S(=O)(=O)N(C)C[C@H]1OCCCC[C@@H](C)Oc2ccc(NC(=O)Cc3ccccc3)cc2C(=O)N([C@@H](C)CO)C[C@H]1C` | -36.05 |
| 50 | `COc1ccc(NC(=O)N(C)C[C@@H]2Oc3ncc(-c4cc5ccccc5o4)cc3C(=O)N([C@H](C)CO)C[C@@H]2C)cc1` | -42.84 |
| 51 | `C[C@@H]1CN([C@@H](C)CO)C(=O)c2cccc(NC(=O)Nc3ccc(C(F)(F)F)cc3)c2O[C@@H]1CN(C)CC1CC1` | -25.09 |
| 52 | `O=C(Nc1cc(F)ccc1F)N1CC(=O)N2[C@H](C1)[C@@H](c1ccc(-c3ccccc3)cc1)[C@@H]2CO` | -38.41 |
| 53 | `O=C(Nc1cccc(F)c1)N1CCCCN2[C@H](C1)[C@H](c1ccc(C#CC3CC3)cc1)[C@@H]2CO` | -51.16 |
| 54 | `OC[C@H]1[C@@H](c2ccc(/C=C/c3ccccc3)cc2)[C@@H]2CN(Cc3ccncc3)CCCCN12` | -57 |
| 55 | `COc1ccccc1NC(=O)N1CCCCN2[C@H](C1)[C@H](c1ccc(C#CC3CCCC3)cc1)[C@@H]2CO` | -37.22 |

For reference, 6 entries once more:

| SMILES | activity change (Venus) (%) |
|---|---|
| `C[C@@H]1CN([C@@H](C)CO)C(=O)c2cc(C#CC3CCCCC3)cnc2O[C@@H]1CN(C)S(=O)(=O)c1ccccc1` | -39.04 |
| `Cc1noc(C)c1S(=O)(=O)N(C)C[C@H]1OCCCC[C@@H](C)Oc2ccc(NC(=O)Cc3ccccc3)cc2C(=O)N([C@@H](C)CO)C[C@H]1C` | -36.05 |
| `OC[C@@H]1[C@H](c2ccc(-c3ccc(F)cc3)cc2)[C@H]2CN(CCC(F)(F)F)CCCCN12` | -78.42 |
| `C[C@H](CO)N1C[C@H](C)[C@H](CN(C)Cc2ccc(C(F)(F)F)cc2)Oc2ccc(NS(=O)(=O)c3ccc(Cl)cc3)cc2CC1=O` | -25.92 |
| `O=C(C[C@@H]1CC[C@@H]2[C@H](COC[C@@H](O)CN2Cc2ccc(Oc3ccccc3)cc2)O1)Nc1nccs1` | -46.82 |
| `C[C@@H]1CCCCO[C@H](CN(C)C(=O)C2CCCCC2)[C@H](C)CN([C@@H](C)CO)C(=O)c2cc(NS(=O)(=O)c3ccc(Cl)cc3)ccc2O1` | -56.58 |